The values that follow come from publication PMC6340896.

The chains behind the UniProt entries cited, without tags or fusion partners. Where a name states a change or a piece, a line headed by the entry shows the natural chain unless it says otherwise.
UniProt P05737: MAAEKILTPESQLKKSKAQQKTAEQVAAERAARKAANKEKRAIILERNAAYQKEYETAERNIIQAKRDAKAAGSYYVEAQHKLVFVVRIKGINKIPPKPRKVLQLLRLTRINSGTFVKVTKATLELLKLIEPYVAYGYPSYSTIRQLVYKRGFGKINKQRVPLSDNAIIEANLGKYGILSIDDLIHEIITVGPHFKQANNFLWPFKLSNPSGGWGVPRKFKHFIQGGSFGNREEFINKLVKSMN

Test [1] addresses ribosomal protein L4 (S. cerevisiae (endogenous in BY4741)). Kind of test: cryo-EM structure; Rpf1-TAP pre-60S particle purified from yeast, Titan Krios 300 kV, 3.65 Å overall.
The target in test [2] is ribosomal protein L7 (S. cerevisiae (endogenous in BY4741)) (UniProt P05737). Described as above.

These are yes or no findings as the source states them, for the method shown. A result given as binding can be weak or reduced; the word gives no strength.

B1: Mak16 (protein, UniProt P10962 1-306)
chain: MSDEIVWQVINQSFCSHRIKAPNGQNFCRNEYNVTGLCTRQSCPLANSKYATVKCDNGKLYLYMKTPERAHTPAKLWERIKLSKNYTKALQQIDEHLLHWSKFFRHKCKQRFTKLTQVMITERRLALREEERHYVGVAPKVKRREQNRERKALVAAKIEKAIEKELMDRLKSGAYGDKPLNVDEKVWKKIMGQMEEENSQDEEEDWDEEEESDDGEVEYVADDGEGEYVDVDDLEKWLADSDREASSASESESDSESESDSDSDEENKNSAKRRKKGTSAKTKRPKVEIEYEEEHEVQNAEQEVAQ
In the case of B1, in test [1], the binding entry is reported as “binds”.

B2: Rrp1 (protein, UniProt P35178 1-278)
chain: METSNFVKQLSSNNRKTRVNALEALKKYLTAKQFKENKQIEFNKLWKGLYYAMWFSDRPRPQQRLANELGELHGLYFDPKDNSTADELTTNDKAFIKFSRGFWKVMCFEWFNIDRYRLDKYLLLIRRVLFSQLKYLQSRNWDKKLVDEYIKKVLRWLPLSGSPKVYTGIPIHIVDILLDEWERLLKDGDEDDEDEENKEEEMRKIAESAKKTPLADVIAIFQDIVADYNNSKVLREKIKEDLFSDTRLVSWDILEGETQHNDSSNESEEEEEEEWKGF
Take B2: the binding result in test [1] and in test [2] was “binds” in each case.
